# Reference: PMC12814185 (Journal of the American Chemical Society, 2025)
# For some of these results: One purity is given for all peptides; the source may state it once. For some of these results: Some peptides are written in HELM: one residue between dots, names in brackets for other building blocks, links after the first $. Where a SMILES comes first, the peptide text is derived from it. Bridges are numbered along the chain shown (N, C = ends). Roman numbers before positions name the chains, in order. Triazole bridges read from a SMILES are 1,4-linked. Where no end group is shown, it is not given here. Side-chain parts run from the residue outwards. [ ]: non-standard residue; d: D form. The star is where a group is joined. X2 = CN1C(=C/C=C/C=C/C2=[N+](CCCCCC(=O)*)c3ccc(S(=O)(=O)[O-])cc3C2(C)C)C(C)(C)c2cc(S(=O)(=O)O)ccc21; X1 = CN1C(=CC=CC=CC2=[N+](CCCCCC(=O)*)c3ccc(S(=O)(=O)[O-])cc3C2(C)C)C(C)(C)c2cc(S(=O)(=O)O)ccc21; Lys(N3) = [N-]=[N+]=NCCCC[C@H](N)C(=O)O; Cit = NC(=O)NCCC[C@H](N)C(=O)O; d(hCys) = N[C@H](CCS)C(=O)O; PEG3 = NCCOCCOCCOCCC(=O)O; Pra = C#CC[C@H](N)C(=O)O
# Legend:
# HMEC-1 cells = experiment: Fluorescence correlation spectroscopy (FCS) in the cytosol; conditions: HMEC-1 cytosol, 72 h incubation
# Procedure: (§1) 3 Quantification of Cy5-labeled peptides in the cytosol. (A) RP-HPLC (λex = 640 nm, λem = 670 nm) of cleavage products of Cy5-labeled peptides in the lysate of HEK293_CMKLR1-eYFP cells after incubation with 1 μM peptide for different durations. […] (B) Representative fluorescence correlation spectroscopy (FCS) autocorrelation curves of Cy5-labeled peptides measured in the cytosol of HEK293_CMKLR1-eYFP cells after 72 h of incubation. Measured curves were fitted with a model for hindered 3D diffusion and diffusion time t D and anomalous coefficient α were calculated from the fit. Autocorrelation data represent mean ± SD of up to 10 consecutive 5 s measurements in a single cell. (C) Intracellular concentrations of Cy5-labeled peptides after 72 h incubation calculated from the fitted autocorrelation curves obtained in HEK293_CMKLR1-eYFP, HMEC-1, and THP-1 cells. Each data point corresponds to FCS measurements from the cytosol of a single cell. Median with the interquartile range is shown. Data from three independent experiments. Statistical comparison by log-normal unpaired t test. ***p ≤ 0.001, **p ≤ 0.01, *p ≤ 0.05, ns – not significant. […] (D) Calculated diffusion coefficients from the fitted autocorrelation curves. Median with the interquartile range is shown. […]
# (§2) Fluorescence correlation spectroscopy (FCS)
# (§3) Cytosolic delivery was quantified by FCS as has been described previously.3–5 Stably transfected HEK293_CMKLR1-eYFP cells were seeded at 30,000 cells per well and HMEC-1 cells at 10,000 cells per well into poly-ᴅ-lysine-coated 8-well microscopy slides (ibidi) in their respective cell culture medium. THP-1 cells were resuspended in fresh cell culture medium at 100,000 cells/mL in 500 µL cell culture medium in uncoated 12-well plates. The next day, dilutions of Cy5-labeled peptides were added to the cells and incubated for 72 h. Cell membranes of HMEC-1 and THP-1 cells were stained with 20 µg/mL Alexa Fluor 488-labeled concanavalin A (Invitrogen) for 20 min to enable identification of the cytosol. Nuclei were counterstained with Hoechst33342, and cells were washed with FluoroBriteTM DMEM (Gibco) + 25 mM HEPES (pH 7.4). After washing, THP-1 cells were transferred to poly-ᴅ-lysine-coated 8-well microscopy slides and allowed to sediment and adhere for 1 h. Confocal imaging and FCS were performed at 22 °C on a TCS SP8 FALCON microscope (Leica) with a Plan-Apochromat 40x/1,10 water immersion objective and HyD single molecule detector (Leica). The 638 nm laser line was used for excitation at 0.5% power and […]
# THP-1 cells = experiment: as above; conditions: THP-1 cytosol, 72 h incubation
# Procedure: as §1, §2, §3
# HEK293_CMKLR1-eYFP cells = experiment: as above; conditions: 72 h incubation
# Procedure: as §1, §2, §3
# [1] = general procedure: Fmoc solid-phase peptide synthesis; TGR Rink amide resin (NovaSyn); oxyma/DIC; HATU/DIPEA for ethylene glycol linkers; conditions: for final HPLC purity: RP-HPLC on two different columns (Aeris Peptide XB-C18, Jupiter Proteo C12)
# [2] = conjugation step, one disulfide bridge, sequence written open
compound,measurement,setting,value
CC(=O)N[C@@H](CCCCn1cc(C[C@H](NC(=O)CCOCCOCCOCCNC(=O)[C@H](CCCNC(N)=O)NC(=O)[C@@H](NC(=O)[C@H](CCC(=O)O)NC(=O)CNC(=O)CNC(=O)[C@@H](CCCNC(=N)N)NC(=O)[C@@H](CC(C)C)NC(=O)[C@@H](CC(C)C)NC(=O)[C@@H](C)NC(=O)[C@@H](CCC(=O)O)NC(=O)[C@@H](Cc2ccccc2)NC(=O)[C@@H](C)NC(=O)[C@@H](CC(C)C)NC(=O)[C@H]2CCCN2C(=O)[C@@H](Cc2c[nH]c3ccccc23)NC(=O)[C@@H](Cc2c[nH]c3ccccc23)NC(=O)[C@@H](CC(=O)O)NC(=O)CCOCCOCCOCCNC(=O)CCCCC[N+]2=C(/C=C/C=C/C=C3N(C)c4ccc(S(=O)(=O)O)cc4C3(C)C)C(C)(C)c3cc(S(=O)(=O)[O-])ccc32)C(C)C)C(N)=O)nn1)C(=O)N[C@@H](Cc1ccc(O)cc1)C(=O)N[C@@H](Cc1ccccc1)C(=O)N1CCC[C@H]1C(=O)N[C@@H]1CCSSC[C@@H](C(=O)O)NC(=O)[C@H](Cc2ccccc2)NC(=O)[C@H](C)NC(=O)[C@H](Cc2ccccc2)NC(=O)[C@H](CCC(N)=O)NC1=O [2Cy] (I: {X2-PEG3}-[dD][dW][dW][dP][dL][dA][dF][dE][dA][dL][dL][dR]GGEV[Cit][PEG3][Pra]-NH2 / II: Ac-[Lys(N3)]YFP[d(hCys)]QFAFC-OH; triazole I:19-II:1; disulfide II:5-II:10),median intracellular diffusion coefficient,HMEC-1 cells,180 μm^2/s
same,median intracellular diffusion coefficient,THP-1 cells,28.9 μm^2/s
same,median intracellular diffusion coefficient,HEK293_CMKLR1-eYFP cells,13.1 μm^2/s
Ac–K(N3)YFP-hcys-QFAFC–OH,final HPLC purity,"[1]; whole synthesis, scale of the general procedure 15 µmol, one disulfide bridge, sequence written open",>95%
Cy5-(EG)3-dwwplafeallrGEV-Cit-(EG)3-Pra(cC9)-NH2,final HPLC purity,[1]; [2],>95%
GSVSHHHHHHGGHHHH-(EG)3-k(Cy5-(EG)3)dwwplafeallrGEV-Cit-(EG)3-Pra(cC9)-NH2,final HPLC purity,[1]; [2],>95%
same,conjugation yield,[1]; [2],33%
I: GSVSHHHHHHGGHHHH[PEG3][dK]([PEG3-X1])[dD][dW][dW][dP][dL][dA][dF][dE][dA][dL][dL][dR]GEV[Cit][PEG3][Pra]-NH2 / II: Ac-[Lys(N3)]YFP[d(hCys)]QFAFC-OH (triazole I:36-II:1; disulfide II:5-II:10) [3Cy],median intracellular diffusion coefficient,HMEC-1 cells,169 μm^2/s
same,median intracellular diffusion coefficient,THP-1 cells,32.6 μm^2/s
same,median intracellular diffusion coefficient,HEK293_CMKLR1-eYFP cells,11.3 μm^2/s
"PEPTIDE1{G.S.V.S.H.H.H.H.H.H.G.G.H.H.H.H.[EG3].[dD].[dW].[dW].[dP].[dL].[dA].[dF].[dE].[dA].[dL].[dL].[dR].G.E.V.[Cit].[EG3].[PraTz].[am]}|PEPTIDE2{[ac].[LysTz].Y.F.P.[D-hCys].Q.F.A.F.C}$PEPTIDE1,PEPTIDE2,35:R3-2:R3|PEPTIDE2,PEPTIDE2,6:R3-11:R3$$$V2.0",final HPLC purity,[1]; conjugation step,>95%
PEPTIDE1{[dR].[dR].[dR].[dR].[dR].[dR].[dR].[dR].[dR].[EG3].[dD].[dW].[dW].[dP].[dL].[dA].[dF].[dE].[dA].[dL].[dL].[dR].G.E.V.[Cit].[EG3].[Pra].[am]}$$$$V2.0,final HPLC purity,"[1]; whole synthesis, scale of the general procedure 15 µmol",>95%
dwwplafeallrGEV-Cit-(EG)3-Pra(cC9)-NH2,final HPLC purity,[1]; [2],>95%
